Values quoted from earlier work as cited in patent US11124758B2, “Bacteria culture medium and applications thereof” (priority 2013, dated 2021).
Some of these results come from one statement about several compounds together. For some assays here: For at least one compound, name, drawing or mass did not settle the structure.

Tests used:
[1] = cited from earlier work
[2] = used as veterinary medicine; cited from earlier work
[3] = carbenicillin: general; ampicillin: plates supplied by Sigma-Aldrich; cited from earlier work

| SMILES | solubility [1] | duration of medicine effect [2] | shelf life of agar culture plate medium containing the antibiotic [3] |
| --- | --- | --- | --- |
| CC(=O)OCC1=C(C(=O)O)N2C(=O)[C@@H](NC(=O)CSc3ccncc3)[C@H]2SC1.CC(=O)OCC1=C(C(=O)O)N2C(=O)[C@@H](NC(=O)CSc3ccncc3)[C@H]2SC1.c1ccc(CNCCNCc2ccccc2)cc1 [cephapirin benzathine] | 50 to 200 µg/mL | 3-4 weeks | – |
| CC1(C)S[C@@H]2[C@H](NC(=O)C(C(=O)O)c3ccccc3)C(=O)N2[C@H]1C(=O)O (some centres unmarked) [carbenicillin] | – | – | 1-2 months |
| CC1(C)S[C@@H]2[C@H](NC(=O)[C@H](N)c3ccccc3)C(=O)N2[C@H]1C(=O)O [ampicillin] | – | – | 1-2 months |
| Cc1onc(-c2ccccc2Cl)c1C(=O)N[C@@H]1C(=O)N2[C@@H]1SC(C)(C)[C@@H]2C(=O)O.Cc1onc(-c2ccccc2Cl)c1C(=O)N[C@@H]1C(=O)N2[C@@H]1SC(C)(C)[C@@H]2C(=O)O.c1ccc(CNCCNCc2ccccc2)cc1 [cloxacillin benzathine] | – | 3-4 weeks | – |
